Results from US6310040A, “Treating retinal neuronal disorders by the application of insulin-like growth factors and analogs” (Cephalon, Inc., priority 1992, dated 2001).
At least one peptide structure holds a part that was inferred or is arguable (an end, a ring closure or a residue). Some entries repeat one wording, which the source may state once for all of them. Non-standard residues stand in square brackets, D forms with d. Residues, ends and D or L forms follow the SMILES beside them.

test system: postnatal rat retinal neuronal cells; assay: calcein-AM survival assay, dissociated postnatal rat retinal neuronal cultures; type: cell-based; conditions: 100 μM, neurons from dissociated rat retina
Protocol: Retinas were dissected from embryonic chicks, dissociated by enzymatic digestion and cultured in vitro in defined insulin/serum-free medium according to Sato et al. (1979, Proc. Natl. Acad. Sci. USA 76:514-517). The number of cells in culture was measured using the vital stain calcein-AM. All cells are permeable to calcein-AM, but only live cells are capable of converting this compound into a fluorescent derivative detectable by ordinary methods. In the first experiment, calcein-AM (6 μM) was added to different cultures of retinal cells and the relationship between the level of fluorescence and the number of cells was determined.
To determine the concentration of IGF-I required to promote survival of pre- or postnatal retinal neurons in culture, the following experiments were carried out: Retinal neurons were prepared from dissociated retina obtained from 10 day old chick embryos, or from […] postnatal day 6 rats as described above. Cultures were incubated in the presence of increasing concentrations of IGF-I and the number of cells surviving at 48 hours post-treatment was measured in the calcein-AM assay. […] Based upon previously published data, the concentrations of IGF-I that promote neuronal cell survival in our experiments are consistent with the fact that IGF-I is acting through its own receptor (Karey et al., 1988, In Vitro Cell. Dev. Biol. 24:1107-1113; Ballard et al., 1988, Biochem. J. 249:721-726).
To determine whether retinal survival could be enhanced when incubated in the presence of functional derivatives of IGF-I and IGF-II, a linear fragment of IGF-II that is relatively conserved within both IGF-I and IGF-II, was tested in our assay. The fragment contained a sequence of 14 amino acids from IGF-II (amino acids 54-67, wherein the amino terminal amino acid of IGF-II is number 1).
To determine whether IGF-I, IGF-II, and IGF-III can promote the survival of retinal neuronal cells, dissociated cultures of postnatal rat retina were prepared and assayed for the total number of cells present after incubation in the presence or absence of IGFs. Retinas were dissected from postnatal day 6 rats, dissociated by enzymatic digestion and seeded at a density of 6.25×10^4 cells/cm^2 in defined insulin/serum-free media (Bottenstein et al., 1979, PNAS 76:514-517). These cultures are heterogenous, comprised of at least five independent retinal neuronal cell subpopulations, i.e., amacrine, bipolar, horizontal, photoreceptor and ganglion cells. Cultures were incubated in the presence or absence of 100 nM of each of the IGFs. The total number of cells remaining after 4 days was assayed by incubation with the vital stain calcein-AM at 6 uM. This compound is taken up by all cells but can only be converted to a fluorescent derivative by live cells.
To determine whether linear peptide derivatives of IGFs can support the survival of retinal neuronal cells, dissociated cultures of postnatal rat retina were prepared and assayed for the total number of cells present after incubation in the presence or absence of peptides (100 uM). Retinal neuronal cell cultures were prepared as described in Example 11 and the total number of cells surviving analyzed analogously. Peptides were derived from the amino acid regions 7-30 and 55-70 of IGF-I and […] and the region within IGF-II, amino acids 54-67.

SMILES | retinal neuronal cell survival
CC(C)C[C@H](NC(=O)[C@H](C)N)C(=O)N[C@@H](CC(C)C)C(=O)N[C@@H](CCC(=O)O)C(=O)N[C@H](C(=O)N[C@@H](Cc1ccc(O)cc1)C(=O)N[C@@H](CS)C(=O)N[C@@H](C)C(=O)N[C@H](C(=O)N1CCC[C@H]1C(=O)N[C@@H](C)C(=O)N[C@@H](CCCCN)C(=O)N[C@@H](CO)C(=O)N[C@@H](CCC(=O)O)C(=O)O)[C@@H](C)O)[C@@H](C)O [IGF-II (54-67), ALLETYCATPAKSE] | found to promote retinal neuronal cell survival

same assay, conditions: peptides 100 uM, 4 days, postnatal rat retina

SMILES | fluorescence values (total number of cells surviving) versus untreated cultures
CC(C)C[C@H](NC(=O)[C@H](C)N)C(=O)N[C@@H](CC(C)C)C(=O)N[C@@H](CCC(=O)O)C(=O)N[C@H](C(=O)N[C@@H](Cc1ccc(O)cc1)C(=O)N[C@@H](CO)C(=O)N[C@@H](C)C(=O)N[C@H](C(=O)N1CCC[C@H]1C(=O)N[C@@H](C)C(=O)N[C@@H](CCCCN)C(=O)N[C@@H](CO)C(=O)N[C@@H](CCC(=O)O)C(=O)O)[C@@H](C)O)[C@@H](C)O [ALLETYSATPAKSE] (H-ALLETYSATPAKSE-OH) | higher fluorescence values than untreated cultures
C[C@H](N)C(=O)N1CCC[C@H]1C(=O)N[C@@H](CO)C(=O)N[C@H](C(=O)N[C@@H](CS)C(=O)N[C@@H](CCC(=O)O)C(=O)N[C@@H](Cc1ccc(O)cc1)C(=O)N[C@@H](CCCCN)C(=O)N[C@@H](C)C(=O)O)[C@@H](C)O [APSTCEYKA] (H-APSTCEYKA-OH) | higher fluorescence values than untreated cultures
C[C@H](NC(=O)[C@@H]1CCCN1C(=O)[C@@H]1CCCN1C(=O)[C@H](C)NC(=O)[C@H](CS)NC(=O)[C@H](Cc1ccc(O)cc1)NC(=O)[C@@H]1CCCN1C(=O)[C@@H](N)CCC(=O)O)C(=O)N[C@@H](CCCCN)C(=O)N[C@@H](CO)C(=O)N[C@@H](CCC(=O)O)C(=O)O [EPYCAPPAKSE] (H-EPYCAPPAKSE-OH) | higher fluorescence values than untreated cultures
C[C@H](NC(=O)[C@H](CS)NC(=O)[C@H](CCC(N)=O)NC(=O)[C@@H](NC(=O)[C@@H](N)CCC(=O)O)[C@@H](C)O)C(=O)N[C@H](C(=O)N1CCC[C@H]1C(=O)N[C@@H](C)C(=O)N[C@@H](CCCCN)C(=O)N[C@@H](CO)C(=O)N[C@@H](CCC(=O)O)C(=O)O)[C@@H](C)O [ETQCATPAKSE] (H-ETQCATPAKSE-OH) | higher fluorescence values than untreated cultures
CC(C)C[C@H](NC(=O)[C@H](C)N)C(=O)N[C@@H](CC(C)C)C(=O)N[C@@H](CCC(=O)O)C(=O)N[C@H](C(=O)N[C@H](Cc1ccc(O)cc1)C(=O)N[C@@H](CS)C(=O)N[C@@H](C)C(=O)N[C@H](C(=O)N1CCC[C@H]1C(=O)N[C@@H](C)C(=O)N[C@@H](CCCCN)C(=O)N[C@@H](CO)C(=O)N[C@@H](CCC(=O)O)C(=O)O)[C@@H](C)O)[C@@H](C)O [IGF-II (54-67 with D-Y at 59), ALLETDYCATPAKSE] | higher fluorescence values than untreated cultures
CC(C)C[C@H](NC(=O)[C@H](C)N)C(=O)N[C@@H](CC(C)C)C(=O)N[C@@H](CCC(=O)O)C(=O)N[C@H](C(=O)N[C@@H](Cc1ccc(O)cc1)C(=O)N[C@@H](CS)C(=O)N[C@@H](C)C(=O)N[C@H](C(=O)N1CCC[C@H]1C(=O)N[C@@H](C)C(=O)N[C@@H](CCCCN)C(=O)N[C@@H](CO)C(=O)N[C@@H](CCC(=O)O)C(=O)O)[C@@H](C)O)[C@@H](C)O [IGF-II (54-67), ALLETYCATPAKSE] | higher fluorescence values than untreated cultures
C[C@H](NC(=O)[C@H](CS)NC(=O)[C@@H](Cc1ccc(O)cc1)NC(=O)[C@@H](N)[C@@H](C)O)C(=O)N[C@H](C(=O)N1CCC[C@H]1C(=O)N[C@@H](C)C(=O)N[C@@H](CCCCN)C(=O)N[C@@H](CO)C(=O)N[C@@H](CCC(=O)O)C(=O)O)[C@@H](C)O [IGF-II (58-67 with D-Y at 59), TDYCATPAKSE] | higher fluorescence values than untreated cultures
C[C@H](NC(=O)[C@H](CS)NC(=O)[C@H](Cc1ccc(O)cc1)NC(=O)[C@@H](N)[C@@H](C)O)C(=O)N[C@H](C(=O)N1CCC[C@H]1C(=O)N[C@@H](C)C(=O)N[C@@H](CCCCN)C(=O)N[C@@H](CO)C(=O)N[C@@H](CCC(=O)O)C(=O)O)[C@@H](C)O [IGF-II (58-67), TYCATPAKSE] | higher fluorescence values than untreated cultures
CSCC[C@H](NC(=O)[C@H](CCC(=O)O)NC(=O)[C@H](CC(C)C)NC(=O)[C@H](CCCNC(=N)N)NC(=O)[C@@H](N)CCCNC(=N)N)C(=O)N[C@@H](Cc1ccc(O)cc1)C(=O)N[C@@H](CS)C(=O)N[C@@H](C)C(=O)N1CCC[C@H]1C(=O)N[C@@H](CC(C)C)C(=O)N[C@@H](CCCCN)C(=O)N1CCC[C@H]1C(=O)N[C@@H](C)C(=O)N[C@@H](CCCCN)C(=O)N[C@@H](CO)C(=O)N[C@@H](C)C(=O)O [RRLEMYCAPLKPAKSA] (H-RRLEMYCAPLKPAKSA-OH) | higher fluorescence values than untreated cultures
C[C@H](NC(=O)[C@@H]1CCCN1C(=O)[C@H](C)NC(=O)[C@H](CS)NC(=O)[C@H](Cc1ccc(O)cc1)NC(=O)[C@@H](N)[C@@H](C)O)C(=O)N[C@@H](CCCCN)C(=O)N[C@@H](CO)C(=O)N[C@@H](CCC(=O)O)C(=O)O [TYCAPAKSE] (H-TYCAPAKSE-OH) | higher fluorescence values than untreated cultures
C[C@H](NC(=O)[C@@H]1CCCN1C(=O)[C@H](C)NC(=O)[C@H](CS)NC(=O)[C@@H](Cc1ccc(O)cc1)NC(=O)[C@@H](N)[C@@H](C)O)C(=O)N[C@@H](CCCCN)C(=O)N[C@@H](CO)C(=O)N[C@@H](CCC(=O)O)C(=O)O [TdYCAPAKSE] (H-T[dY]CAPAKSE-OH) | higher fluorescence values than untreated cultures
C[C@H](NC(=O)[C@@H]1CCCN1C(=O)[C@H](C)NC(=O)[C@H](CS)NC(=O)[C@@H](N)Cc1ccc(O)cc1)C(=O)N[C@@H](CCCCN)C(=O)N[C@@H](CO)C(=O)N[C@@H](CCC(=O)O)C(=O)O [YCAPAKSE] (H-YCAPAKSE-OH) | higher fluorescence values than untreated cultures
